Sequences and labels used below:
B1: TXN (protein, UniProt P10599 1-105)
chain: MVKQIESKTAFQEALDAAGDKLVVVDFSATWCGPCKMIKPFFHSLSEKYSNVIFLEVDVDDCQDVASECEVKCMPTFQFFKKGQKVGEFSGANKEKLEATINELV
B2: MDH2 (protein, UniProt P40926 25-338)
chain: AKVAVLGASGGIGQPLSLLLKNSPLVSRLTLYDIAHTPGVAADLSHIETKAAVKGYLGPEQLPDCLKGCDVVVIPAGVPRKPGMTRDDLFNTNATIVATLTAACAQHCPEAMICVIANPVNSTIPITAEVFKKHGVYNPNKIFGVTTLDIVRANTFVAELKGLDPARVNVPVIGGHAGKTIIPLISQCTPKVDFPQDQLTALTGRIQEAGTEVVKAKAGAGSATLSMAYAGARFVFSLVDAMNGKEGVVECSFVKSQETECTYFSTPLLLGKKGIEKNLGIGKVSSFEEKMISDAIPELKASIKKGEDFVKTLK
B3: PRPF6 (protein, UniProt O94906 1-941)
chain: MNKKKKPFLGMPAPLGYVPGLGRGATGFTTRSDIGPARDANDPVDDRHAPPGKRTVGDQMKKNQAADDDDEDLNDTNYDEFNGYAGSLFSSGPYEKDDEEADAIYAALDKRMDERRKERREQREKEEIEKYRMERPKIQQQFSDLKRKLAEVTEEEWLSIPEVGDARNKRQRNPRYEKLTPVPDSFFAKHLQTGENHTSVDPRQTQFGGLNTPYPGGLNTPYPGGMTPGLMTPGTGELDMRKIGQARNTLMDMRLSQVSDSVSGQTVVDPKGYLTDLNSMIPTHGGDINDIKKARLLLKSVRETNPHHPPAWIASARLEEVTGKLQVARNLIMKGTEMCPKSEDVWLEAARLQPGDTAKAVVAQAVRHLPQSVRIYIRAAELETDIRAKKRVLRKALEHVPNSVRLWKAAVELEEPEDARIMLSRAVECCPTSVELWLALARLETYENARKVLNKARENIPTDRHIWITAAKLEEANGNTQMVEKIIDRAITSLRANGVEINREQWIQDAEECDRAGSVATCQAVMRAVIGIGIEEEDRKHTWMEDADSCVAHNALECARAIYAYALQVFPSKKSVWLRAAYFEKNHGTRESLEALLQRAVAHCPKAEVLWLMGAKSKWLAGDVPAARSILALAFQANPNSEEIWLAAVKLESENDEYERARRLLAKARSSAPTARVFMKSVKLEWVQDNIRAAQDLCEEALRHYEDFPKLWMMKGQIEEQKEMMEKAREAYNQGLKKCPHSTPLWLLLSRLEEKIGQLTRARAILEKSRLKNPKNPGLWLESVRLEYRAGLKNIANTLMAKALQECPNSGILWSEAIFLEARPQRRTKSVDALKKCEHDPHVLLAVAKLFWSQRKITKAREWFHRTVKIDSDLGDAWAFFYKFELQHGTEEQQEEVRKRCESAEPRHGELWCAVSKDIANWQKKIGDILRLVAGRIKNTF
B4: SRSF2 (protein, UniProt Q01130 1-221)
chain: MSYGRPPPDVEGMTSLKVDNLTYRTSPDTLRRVFEKYGRVGDVYIPRDRYTKESRGFAFVRFHDKRDAEDAMDAMDGAVLDGRELRVQMARYGRPPDSHHSRRGPPPRRYGGGGYGRRSRSPRRRRRSRSRSRSRSRSRSRSRYSRSKSRSRTRSRSRSTSKSRSARRSKSKSSSVSRSRSRSRSRSRSRSPPPVSKRESKSRSRSKSPPKSPEEEGAVSS
B5: MCM3 (protein, UniProt P25205 1-808)
chain: MAGTVVLDDVELREAQRDYLDFLDDEEDQGIYQSKVRELISDNQYRLIVNVNDLRRKNEKRANRLLNNAFEELVAFQRALKDFVASIDATYAKQYEEFYVGLEGSFGSKHVSPRTLTSCFLSCVVCVEGIVTKCSLVRPKVVRSVHYCPATKKTIERRYSDLTTLVAFPSSSVYPTKDEENNPLETEYGLSVYKDHQTITIQEMPEKAPAGQLPRSVDVILDDDLVDKAKPGDRVQVVGTYRCLPGKKGGYTSGTFRTVLIACNVKQMSKDAQPSFSAEDIAKIKKFSKTRSKDIFDQLAKSLAPSIHGHDYVKKAILCLLLGGVERDLENGSHIRGDINILLIGDPSVAKSQLLRYVLCTAPRAIPTTGRGSSGVGLTAAVTTDQETGERRLEAGAMVLADRGVVCIDEFDKMSDMDRTAIHEVMEQGRVTIAKAGIHARLNARCSVLAAANPVYGRYDQYKTPMENIGLQDSLLSRFDLLFIMLDQMDPEQDREISDHVLRMHRYRAPGEQDGDAMPLGSAVDILATDDPNFSQEDQQDTQIYEKHDNLLHGTKKKKEKMVSAAFMKKYIHVAKIIKPVLTQESATYIAEEYSRLRSQDSMSSDTARTSPVTARTLETLIRLATAHAKARMSKTVDLQDAEEAVELVQYAYFKKVLEKEKKRKKRSEDESETEDEEEKSQEDQEQKRKRRKTRQPDAKDGDSYDPYDFSDTEEEMPQVHTPKTADSQETKESQKVELSESRLKAFKVALLDVFREAHAQSIGMNRLTESINRDSEEPFSSVEIQAALSKMQDDNQVMVSEGIIFLI
B6: NFKB2 (protein, UniProt Q00653 1-900)
chain: MESCYNPGLDGIIEYDDFKLNSSIVEPKEPAPETADGPYLVIVEQPKQRGFRFRYGCEGPSHGGLPGASSEKGRKTYPTVKICNYEGPAKIEVDLVTHSDPPRAHAHSLVGKQCSELGICAVSVGPKDMTAQFNNLGVLHVTKKNMMGTMIQKLQRQRLRSRPQGLTEAEQRELEQEAKELKKVMDLSIVRLRFSAFLRASDGSFSLPLKPVISQPIHDSKSPGASNLKISRMDKTAGSVRGGDEVYLLCDKVQKDDIEVRFYEDDENGWQAFGDFSPTDVHKQYAIVFRTPPYHKMKIERPVTVFLQLKRKRGGDVSDSKQFTYYPLVEDKEEVQRKRRKALPTFSQPFGGGSHMGGGSGGAAGGYGGAGGGGSLGFFPSSLAYSPYQSGAGPMGCYPGGGGGAQMAATVPSRDSGEEAAEPSAPSRTPQCEPQAPEMLQRAREYNARLFGLAQRSARALLDYGVTADARALLAGQRHLLTAQDENGDTPLHLAIIHGQTSVIEQIVYVIHHAQDLGVVNLTNHLHQTPLHLAVITGQTSVVSFLLRVGADPALLDRHGDSAMHLALRAGAGAPELLRALLQSGAPAVPQLLHMPDFEGLYPVHLAVRARSPECLDLLVDSGAEVEATERQGGRTALHLATEMEELGLVTHLVTKLRANVNARTFAGNTPLHLAAGLGYPTLTRLLLKAGADIHAENEEPLCPLPSPPTSDSDSDSEGPEKDTRSSFRGHTPLDLTCSTKVKTLLLNAAQNTMEPPLTPPSPAGPGLSLGDTALQNLEQLLDGPEAQGSWAELAERLGLRSLVDTYRQTTSPSGSLLRSYELAGGDLAGLLEALSDMGLEEGVRLLRGPETRDKLPSTAEVKEDSAYGSQSVEQEAEKLGPPPEPPGGLCHGHPQPQVH
B7: TERF2IP (protein, UniProt Q9NYB0 1-399)
chain: MAEAMDLGKDPNGPTHSSTLFVRDDGSSMSFYVRPSPAKRRLSTLILHGGGTVCRVQEPGAVLLAQPGEALAEASGDFISTQYILDCVERNERLELEAYRLGPASAADTGSEAKPGALAEGAAEPEPQRHAGRIAFTDADDVAILTYVKENARSPSSVTGNALWKAMEKSSLTQHSWQSLKDRYLKHLRGQEHKYLLGDAPVSPSSQKLKRKAEEDPEAADSGEPQNKRTPDLPEEEYVKEEIQENEEAVKKMLVEATREFEEVVVDESPPDFEIHITMCDDDPPTPEEDSETQPDEEEEEEEEKVSQPEVGAAIKIIRQLMEKFNLDLSTVTQAFLKNSGELEATSAFLASGQRADGYPIWSRQDDIDLQKDDEDTREALVKKFGAQNVARRIEFRKK
B8: GTF2H3 (protein, UniProt Q13889 1-308)
chain: MVSDEDELNLLVIVVDANPIWWGKQALKESQFTLSKCIDAVMVLGNSHLFMNRSNKLAVIASHIQESRFLYPGKNGRLGDFFGDPGNPPEFNPSGSKDGKYELLTSANEVIVEEIKDLMTKSDIKGQHTETLLAGSLAKALCYIHRMNKEVKDNQEMKSRILVIKAAEDSALQYMNFMNVIFAAQKQNILIDACVLDSDSGLLQQACDITGGLYLKVPQMPSLLQYLLWVFLPDQDQRSQLILPPPVHVDYRAACFCHRNLIEIGYVCSVCLSIFCNFSPICTTCETAFKISLPPVLKAKKKKLKVSA

Results are given in words; binding and its absence hold for the method and conditions named. Binding seen in cells or lysates may run through a third protein. A yes stands for co-enrichment or nearness to the bait. Other partners may have been found. Tags and fused reporters may be left off the sequences shown.

The target in this test is T1, Flag-HA-RNF8 (UniProt O76064).
T1 sequence: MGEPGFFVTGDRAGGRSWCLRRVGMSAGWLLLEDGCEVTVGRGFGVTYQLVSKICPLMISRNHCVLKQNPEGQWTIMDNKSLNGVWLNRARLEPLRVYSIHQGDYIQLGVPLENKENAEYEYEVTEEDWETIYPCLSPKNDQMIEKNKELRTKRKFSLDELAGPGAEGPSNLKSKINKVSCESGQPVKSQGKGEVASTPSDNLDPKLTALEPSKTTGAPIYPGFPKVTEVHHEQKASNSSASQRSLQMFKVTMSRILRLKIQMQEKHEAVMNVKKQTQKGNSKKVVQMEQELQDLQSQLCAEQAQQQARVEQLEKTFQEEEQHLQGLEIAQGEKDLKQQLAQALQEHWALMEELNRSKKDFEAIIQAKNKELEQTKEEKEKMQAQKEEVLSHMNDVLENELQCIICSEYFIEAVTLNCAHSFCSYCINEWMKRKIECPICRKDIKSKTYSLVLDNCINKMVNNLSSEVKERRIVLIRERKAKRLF
Nature of the test: affinity purification with mass spectrometry; two-way screen: cells transfected with Flag-HA-RNF8, IP on anti-Flag-M2 beads, eluate IP on anti-HA beads; in parallel IP with an anti-RNF8 antibody; SDS-PAGE, silver staining, bands to LC-MS; the two protein sets intersected (218 proteins).
Turning to B1, the binding entry is “binds”. For B2 the value was “binds”; for B3, “binds”; for B4, “binds”. To B5 belongs “binds”; to B6, “binds”; to B7, “binds”. As to B8, the binding result is given as “binds”.

The record behind these values is article PMC9277853.
